PubChem BioAssay AID1259308, NCATS | 2017

Assay: 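Genes whose loss raises luciferase production in HEK293 cells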 (primary screen)
Cells: human HEK293 embryonic kidney cells stably expressing firefly luciferase (HEK-CMV-Luc2-Hygro)
Knock-down reagent: single siRNA against human genes, 0.8 pmol siRNA per well
Time to read-out: 72 h
Read-out: 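Luciferase light (ONE-Glo) measured on one replicate plate set and viability (CellTiter-Glo) on the other, scaled to a negative control siRNA, with robust z-scores and luciferase per cell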
Reading the numbers: total luciferase, z-score and total luciferase, % of control: higher = more reporter protein produced
Rule for the call: 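An siRNA counts as active if its total luciferase robust z-score exceeds 3; genes with two or more such siRNAs out of three were retested with fresh siRNAs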
Meaning of the calls: active = raised luciferase; inactive = no rise
This is one part, drawn at random, of about 59,000 reagents. Over the whole deposit, about 1,510 (2.6%) are marked active. 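Calls use total luciferase alone and ignore viability, so some active siRNAs may act by altering cell number.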 Entries without a mark were called inactive. Reagents against one gene are numbered here. Further read-outs or replicates are left out here.

target	siRNA no.	total luciferase, z-score	total luciferase, % of control
PCSK2	1	0.0452	82.8
PCSK2	2	-0.76	66.8
PCSK2	3	0.375	89.3
PSIP1	1	-0.0637	80.6
PSIP1	2	0.503	91.9
PSIP1	3	0.421	90.3
POLR3GL	1	0.584	93.5
POLR3GL	2	0.264	87.1
POLR3GL	3	-1.25	57.1
NUFIP1	1	-0.0945	80
NUFIP1	2	0.2	85.9
NUFIP1	3	-0.019	81.5
KRABD4	1	2.07	123
KRABD4	2	-0.443	73.1
KRABD4	3	1.46	111
MACROD2	1	0.831	98.4
MACROD2	2	1.4	110
MACROD2	3	1.07	103
GGT6	1	-2.22	37.8
GGT6	2	-0.217	77.6
GGT6	3	1.87	119

Ordered by “total luciferase, z-score” (descending): some entries from above.
target	siRNA no.	total luciferase, z-score	total luciferase, % of control
KRABD4	1	2.07	123
KRABD4	3	1.46	111
NUFIP1	2	0.2	85.9
NUFIP1	3	-0.019	81.5
NUFIP1	1	-0.0945	80
KRABD4	2	-0.443	73.1

The list goes on.
target	siRNA no.	total luciferase, z-score	total luciferase, % of control
CFAP141	1	-1.74	47.3
CFAP141	2	-0.618	69.6
CFAP141	3	-0.559	70.8
TENT4A	1	-0.666	68.6
TENT4A	2	-0.673	68.5
TENT4A	3	-0.46	72.7
LMNA	1	-1.6	50.1
LMNA	2	-1.21	57.8
LMNA	3	-1.9	44
RAD51AP2	1	-0.923	63.5
RAD51AP2	2	-1.47	52.7
RAD51AP2	3	-0.41	73.7
ACACA	1	0.182	85.5
ACACA	2	-0.453	72.9
ACACA	3	-0.242	77.1
GCK	1	0.35	88.8
GCK	2	1.25	107
GCK	3	-0.214	77.6
